According to paper PMC6150996:
These are yes or no findings as the source states them, for the method shown. For some assays here: Binding seen in cells or lysates may run through a third protein. Some results given as binding are weak or reduced against the parent protein; the word gives no strength. For some assays here: Tags and fused reporters may be left off the sequences shown.

Chains of the proteins cited; added tags and fusions are not shown.
UniProt P04608: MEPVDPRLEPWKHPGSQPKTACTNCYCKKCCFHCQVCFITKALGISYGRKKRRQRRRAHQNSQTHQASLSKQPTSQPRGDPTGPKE

Assays:
[1] = target: HIV-1 Tat (bait in the yeast two-hybrid screen) (HIV-1) (UniProt P04608); assay: two-hybrid; yeast two-hybrid screen; HIV-1 Tat as bait, human universal cDNA library as prey; 1 x 10^7 cDNA clones screened
[2] = target: T1, endogenous RelB (human (endogenous in HeLa)) (UniProt Q01201); assay: co-IP; lysates of HA-Tat-expressing HeLa cells, in the presence or absence of RNase A (5 μg/ml); IP with rabbit anti-RelB antibodies or control rabbit IgG; western blot
T1 sequence: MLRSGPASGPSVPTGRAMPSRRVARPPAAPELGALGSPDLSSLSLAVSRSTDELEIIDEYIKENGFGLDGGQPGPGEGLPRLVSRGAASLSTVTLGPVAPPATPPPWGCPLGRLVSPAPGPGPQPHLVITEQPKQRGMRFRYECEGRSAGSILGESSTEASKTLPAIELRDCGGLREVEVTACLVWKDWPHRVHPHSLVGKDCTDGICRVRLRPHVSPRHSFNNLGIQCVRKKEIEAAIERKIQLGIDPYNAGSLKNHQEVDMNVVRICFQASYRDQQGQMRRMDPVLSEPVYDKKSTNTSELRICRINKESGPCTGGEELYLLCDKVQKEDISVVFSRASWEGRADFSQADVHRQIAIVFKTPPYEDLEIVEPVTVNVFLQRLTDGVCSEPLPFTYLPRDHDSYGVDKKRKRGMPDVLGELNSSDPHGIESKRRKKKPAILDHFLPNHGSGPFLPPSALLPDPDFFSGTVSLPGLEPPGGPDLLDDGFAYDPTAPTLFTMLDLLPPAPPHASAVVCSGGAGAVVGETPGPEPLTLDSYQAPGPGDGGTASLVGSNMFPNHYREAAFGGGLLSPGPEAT

Myc-Tat (HIV-1) = Myc-Tat (HIV-1) (UniProt P04608); assay: co-IP; HEK 293T co-transfected with Myc-Tat and pFlag-RelB; IP with anti-Flag or anti-Myc antibodies; 50 mM Tris pH 7.4, 150 mM NaCl, 2 mM EDTA, 3% glycerol, 1% Triton-X-100; 4 °C; western blot
EGFP-Tat (HIV-1) = EGFP-Tat (HIV-1) (UniProt P04608); assay: co-IP; HEK 293T co-transfected with pFlag-RelB and EGFP-Tat (wild type or deletion mutants of either); IP with anti-EGFP (Tat) or anti-Flag (RelB); western blot
HA-Tat (HIV-1) = HA-Tat (HIV-1) (UniProt P04608); assay: co-IP; lysate of HA-Tat-expressing HeLa cells; IP with mouse anti-HA antibodies; endogenous RelB detected by western blot

For “RelB fragment 236-452 aa (clone from the yeast two-hybrid library) (from UniProt Q01201 236-452) (domain or fragment)”, the binding [1] was “binds”.

With HA-Tat (from UniProt P04608 1-86) the binding [2] was “binds”.

B1: Flag-RelB (protein, UniProt Q01201 1-579)
chain: T1 sequence
B1 was tested, and the binding (Myc-Tat (HIV-1)) was “binds” and the binding (EGFP-Tat (HIV-1)) was “binds”.

B2: endogenous RelB (protein, UniProt Q01201 1-579)
chain: T1 sequence
For B2, the binding (HA-Tat (HIV-1)) was “binds”.
